Source: the supplement of paper PMC10849652
The list shows a part of the results.

By UniProt entry, the sequences of proteins in these tests, tags left out. Where a name states a change or a piece, a line headed by the entry shows the natural chain unless it says otherwise.
UniProt Q9HAP2: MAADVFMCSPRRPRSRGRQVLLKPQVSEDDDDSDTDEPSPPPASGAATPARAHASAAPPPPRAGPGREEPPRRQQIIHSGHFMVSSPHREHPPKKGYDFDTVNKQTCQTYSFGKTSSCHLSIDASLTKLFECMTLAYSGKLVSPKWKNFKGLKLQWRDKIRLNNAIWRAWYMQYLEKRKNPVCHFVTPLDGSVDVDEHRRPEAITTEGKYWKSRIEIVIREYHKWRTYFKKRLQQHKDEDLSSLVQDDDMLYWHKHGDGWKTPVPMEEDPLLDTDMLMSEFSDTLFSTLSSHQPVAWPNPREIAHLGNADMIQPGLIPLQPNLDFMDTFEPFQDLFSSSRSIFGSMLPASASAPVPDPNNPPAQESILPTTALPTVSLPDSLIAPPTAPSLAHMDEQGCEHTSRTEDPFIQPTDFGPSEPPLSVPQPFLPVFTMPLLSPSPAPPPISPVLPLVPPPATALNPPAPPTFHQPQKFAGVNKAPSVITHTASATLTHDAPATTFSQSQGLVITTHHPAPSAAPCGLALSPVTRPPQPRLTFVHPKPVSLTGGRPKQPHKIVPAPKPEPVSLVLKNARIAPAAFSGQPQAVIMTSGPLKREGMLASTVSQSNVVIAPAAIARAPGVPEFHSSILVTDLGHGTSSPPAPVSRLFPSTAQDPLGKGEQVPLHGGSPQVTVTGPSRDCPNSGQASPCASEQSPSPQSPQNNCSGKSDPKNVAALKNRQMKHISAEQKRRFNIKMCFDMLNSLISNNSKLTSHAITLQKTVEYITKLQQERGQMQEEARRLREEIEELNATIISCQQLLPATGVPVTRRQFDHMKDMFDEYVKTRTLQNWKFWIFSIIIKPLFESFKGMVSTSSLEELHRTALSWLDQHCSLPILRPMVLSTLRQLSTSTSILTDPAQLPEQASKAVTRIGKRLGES
UniProt Q7L9L4: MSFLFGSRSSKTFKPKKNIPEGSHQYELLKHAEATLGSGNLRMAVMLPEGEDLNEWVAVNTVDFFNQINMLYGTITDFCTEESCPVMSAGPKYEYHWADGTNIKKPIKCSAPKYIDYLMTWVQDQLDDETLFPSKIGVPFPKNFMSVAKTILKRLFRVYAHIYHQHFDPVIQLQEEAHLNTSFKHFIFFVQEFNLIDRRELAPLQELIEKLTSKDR
UniProt P14174: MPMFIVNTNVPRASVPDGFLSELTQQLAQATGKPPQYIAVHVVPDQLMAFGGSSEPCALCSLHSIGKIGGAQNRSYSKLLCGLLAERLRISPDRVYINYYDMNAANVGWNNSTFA
UniProt A9UHW6: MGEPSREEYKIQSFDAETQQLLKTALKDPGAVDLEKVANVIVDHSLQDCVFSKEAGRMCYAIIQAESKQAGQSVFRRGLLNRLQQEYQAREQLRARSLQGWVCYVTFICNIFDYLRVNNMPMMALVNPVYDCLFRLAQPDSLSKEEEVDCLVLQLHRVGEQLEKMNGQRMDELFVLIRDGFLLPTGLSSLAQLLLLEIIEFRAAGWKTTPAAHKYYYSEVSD
UniProt Q9UL63, whole entry, looked up: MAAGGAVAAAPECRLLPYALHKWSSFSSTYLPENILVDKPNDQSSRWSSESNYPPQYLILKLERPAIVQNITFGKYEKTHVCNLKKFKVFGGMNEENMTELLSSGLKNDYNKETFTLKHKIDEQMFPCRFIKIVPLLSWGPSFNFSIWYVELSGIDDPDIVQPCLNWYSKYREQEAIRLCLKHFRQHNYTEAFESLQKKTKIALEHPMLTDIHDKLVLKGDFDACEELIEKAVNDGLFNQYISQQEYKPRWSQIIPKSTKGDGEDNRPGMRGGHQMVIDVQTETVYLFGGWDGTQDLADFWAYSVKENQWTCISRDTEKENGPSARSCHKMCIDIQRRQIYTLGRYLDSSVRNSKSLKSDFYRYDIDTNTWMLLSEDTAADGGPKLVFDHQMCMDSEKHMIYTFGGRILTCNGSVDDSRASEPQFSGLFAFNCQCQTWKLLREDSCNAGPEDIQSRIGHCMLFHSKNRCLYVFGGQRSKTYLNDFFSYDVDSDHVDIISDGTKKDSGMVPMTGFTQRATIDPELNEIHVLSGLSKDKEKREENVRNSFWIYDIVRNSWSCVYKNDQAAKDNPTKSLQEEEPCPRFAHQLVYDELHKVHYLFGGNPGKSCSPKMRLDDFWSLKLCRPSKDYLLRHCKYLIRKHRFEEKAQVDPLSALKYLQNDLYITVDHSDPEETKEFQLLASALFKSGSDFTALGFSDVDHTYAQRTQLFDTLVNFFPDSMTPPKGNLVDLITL
UniProt Q96BX8: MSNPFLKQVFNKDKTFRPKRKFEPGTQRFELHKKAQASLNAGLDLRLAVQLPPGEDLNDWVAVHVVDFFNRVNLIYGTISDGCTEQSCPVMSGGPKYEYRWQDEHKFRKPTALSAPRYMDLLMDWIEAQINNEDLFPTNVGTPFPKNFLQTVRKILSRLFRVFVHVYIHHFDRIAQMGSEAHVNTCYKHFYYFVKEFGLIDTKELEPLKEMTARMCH
UniProt Q9NYP9: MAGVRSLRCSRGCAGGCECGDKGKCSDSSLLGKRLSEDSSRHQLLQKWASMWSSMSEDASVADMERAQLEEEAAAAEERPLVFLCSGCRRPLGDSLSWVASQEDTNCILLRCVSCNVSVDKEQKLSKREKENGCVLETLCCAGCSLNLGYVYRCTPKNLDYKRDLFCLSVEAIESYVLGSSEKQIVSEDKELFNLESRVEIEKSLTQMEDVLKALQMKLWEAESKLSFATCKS
UniProt P46013: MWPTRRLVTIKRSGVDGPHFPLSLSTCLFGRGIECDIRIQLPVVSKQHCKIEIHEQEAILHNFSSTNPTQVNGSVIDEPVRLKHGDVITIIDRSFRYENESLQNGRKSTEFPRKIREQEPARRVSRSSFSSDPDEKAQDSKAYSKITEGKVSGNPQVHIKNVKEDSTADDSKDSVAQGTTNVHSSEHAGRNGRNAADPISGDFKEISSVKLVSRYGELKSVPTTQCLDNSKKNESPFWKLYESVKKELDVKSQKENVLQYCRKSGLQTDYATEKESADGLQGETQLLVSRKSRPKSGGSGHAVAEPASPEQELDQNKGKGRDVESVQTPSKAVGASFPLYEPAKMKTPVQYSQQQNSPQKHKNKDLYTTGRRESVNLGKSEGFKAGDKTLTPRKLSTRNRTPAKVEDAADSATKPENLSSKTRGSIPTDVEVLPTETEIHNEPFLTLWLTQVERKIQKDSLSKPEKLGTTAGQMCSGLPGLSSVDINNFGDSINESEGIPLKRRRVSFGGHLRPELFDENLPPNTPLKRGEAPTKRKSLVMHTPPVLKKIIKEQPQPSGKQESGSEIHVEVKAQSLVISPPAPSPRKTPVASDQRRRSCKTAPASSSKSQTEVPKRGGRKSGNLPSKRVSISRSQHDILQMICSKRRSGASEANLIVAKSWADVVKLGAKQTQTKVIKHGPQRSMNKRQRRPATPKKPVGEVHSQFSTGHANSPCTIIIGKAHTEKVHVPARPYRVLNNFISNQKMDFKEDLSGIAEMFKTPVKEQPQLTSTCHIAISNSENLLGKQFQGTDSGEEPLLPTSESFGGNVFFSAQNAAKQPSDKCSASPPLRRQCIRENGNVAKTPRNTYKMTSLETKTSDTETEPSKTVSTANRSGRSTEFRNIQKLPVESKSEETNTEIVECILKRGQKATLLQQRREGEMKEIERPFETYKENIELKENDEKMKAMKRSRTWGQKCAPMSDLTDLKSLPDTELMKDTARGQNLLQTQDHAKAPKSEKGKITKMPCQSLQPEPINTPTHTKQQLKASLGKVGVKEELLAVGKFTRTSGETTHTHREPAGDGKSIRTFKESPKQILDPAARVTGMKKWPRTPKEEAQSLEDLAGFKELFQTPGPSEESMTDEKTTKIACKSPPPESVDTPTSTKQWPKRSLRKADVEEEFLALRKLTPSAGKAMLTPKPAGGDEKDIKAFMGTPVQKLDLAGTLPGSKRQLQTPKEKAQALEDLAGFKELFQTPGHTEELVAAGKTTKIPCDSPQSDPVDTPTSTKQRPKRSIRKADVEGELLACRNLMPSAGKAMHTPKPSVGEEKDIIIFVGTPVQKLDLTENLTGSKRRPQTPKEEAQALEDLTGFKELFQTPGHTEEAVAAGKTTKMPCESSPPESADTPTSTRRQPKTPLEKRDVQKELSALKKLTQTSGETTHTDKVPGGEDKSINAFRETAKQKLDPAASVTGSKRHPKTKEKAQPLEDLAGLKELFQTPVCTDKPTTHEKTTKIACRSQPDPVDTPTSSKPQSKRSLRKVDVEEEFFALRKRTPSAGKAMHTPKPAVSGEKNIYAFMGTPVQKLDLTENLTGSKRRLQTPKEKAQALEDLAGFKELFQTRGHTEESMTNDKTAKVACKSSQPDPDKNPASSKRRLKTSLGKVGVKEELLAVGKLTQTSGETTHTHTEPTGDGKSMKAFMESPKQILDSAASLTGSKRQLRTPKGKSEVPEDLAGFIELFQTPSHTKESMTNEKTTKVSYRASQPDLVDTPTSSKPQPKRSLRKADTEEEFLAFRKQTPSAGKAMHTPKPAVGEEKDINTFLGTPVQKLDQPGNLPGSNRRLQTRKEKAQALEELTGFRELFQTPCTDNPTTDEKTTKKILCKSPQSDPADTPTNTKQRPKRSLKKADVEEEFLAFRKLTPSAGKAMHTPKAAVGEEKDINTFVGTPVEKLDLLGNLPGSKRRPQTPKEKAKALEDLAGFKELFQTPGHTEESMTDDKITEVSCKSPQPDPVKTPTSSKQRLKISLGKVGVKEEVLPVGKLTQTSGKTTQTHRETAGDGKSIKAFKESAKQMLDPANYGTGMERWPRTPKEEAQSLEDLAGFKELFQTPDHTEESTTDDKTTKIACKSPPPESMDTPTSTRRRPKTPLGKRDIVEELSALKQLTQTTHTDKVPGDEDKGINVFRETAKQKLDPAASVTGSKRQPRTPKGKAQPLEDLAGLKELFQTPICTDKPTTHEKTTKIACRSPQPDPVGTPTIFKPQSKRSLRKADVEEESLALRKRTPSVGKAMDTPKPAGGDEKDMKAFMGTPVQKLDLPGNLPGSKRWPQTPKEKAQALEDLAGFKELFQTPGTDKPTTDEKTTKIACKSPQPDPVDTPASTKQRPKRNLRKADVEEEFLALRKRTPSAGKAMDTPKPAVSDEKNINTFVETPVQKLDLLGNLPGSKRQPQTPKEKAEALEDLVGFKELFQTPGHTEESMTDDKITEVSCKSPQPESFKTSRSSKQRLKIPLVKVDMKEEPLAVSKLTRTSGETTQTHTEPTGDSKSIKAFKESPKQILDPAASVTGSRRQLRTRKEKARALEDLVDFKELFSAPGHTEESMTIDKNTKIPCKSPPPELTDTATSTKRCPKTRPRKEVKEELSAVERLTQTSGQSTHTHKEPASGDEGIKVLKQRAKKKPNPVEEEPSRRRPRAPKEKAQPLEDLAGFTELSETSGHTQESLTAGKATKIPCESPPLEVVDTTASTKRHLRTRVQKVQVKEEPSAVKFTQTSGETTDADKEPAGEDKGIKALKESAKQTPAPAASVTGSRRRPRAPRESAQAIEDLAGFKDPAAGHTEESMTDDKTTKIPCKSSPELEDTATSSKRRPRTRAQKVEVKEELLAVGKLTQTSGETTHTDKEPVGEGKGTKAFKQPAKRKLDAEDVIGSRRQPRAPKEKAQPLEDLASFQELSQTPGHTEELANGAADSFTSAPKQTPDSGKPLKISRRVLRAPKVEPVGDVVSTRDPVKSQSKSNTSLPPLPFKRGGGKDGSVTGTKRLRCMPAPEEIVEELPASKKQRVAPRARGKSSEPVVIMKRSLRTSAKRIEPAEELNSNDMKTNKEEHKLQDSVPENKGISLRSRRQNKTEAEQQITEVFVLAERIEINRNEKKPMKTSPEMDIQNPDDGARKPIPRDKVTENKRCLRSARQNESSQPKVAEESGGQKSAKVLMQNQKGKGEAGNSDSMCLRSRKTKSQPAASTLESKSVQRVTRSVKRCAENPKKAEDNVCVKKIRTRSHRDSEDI
UniProt Q9NV56, whole entry, looked up: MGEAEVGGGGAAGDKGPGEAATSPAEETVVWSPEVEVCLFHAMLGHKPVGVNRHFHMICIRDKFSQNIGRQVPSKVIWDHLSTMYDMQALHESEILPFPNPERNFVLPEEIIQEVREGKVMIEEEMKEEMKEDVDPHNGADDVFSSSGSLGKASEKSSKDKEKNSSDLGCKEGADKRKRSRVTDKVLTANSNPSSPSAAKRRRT

Assays:
Assay in all cases: log2 fold change, soluble protein after heating vs DMSO (PISA); higher = thermal stabilisation; K562 cells, 10 uM, 30 min; active = over 0.2 and 3.5 SD of the protein, either way, in both replicates (recomputed)
[1] = compound: Cc1ccc(NC(=O)c2ccc(CN3CC[C@H](N(C)C)C3)c(C(F)(F)F)c2)cc1Nc1nccc(-c2cncnc2)n1 [bafetinib]
Method in brief: (§1)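 Quantification of soluble protein used TMTpro 16plex LC-MS/MS, with channel sums equalised. Samples were the supernatant after 21,000xg for 90 min of pooled aliquots from K562 cells (2×10^6 cells/mL) treated with 10 μM compound for 30 min, heated for 3 min over 48°C-58°C, and extracted in PBS with 0.5% NP-40 at 4°C. Values, from duplicates, describe thermal stability against control samples on a log2 fold-change scale.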

[2] = compound: Cc1cccc(CC(=O)N2CCc3c2ccc(-c2cn(C)c4ncnc(N)c24)c3F)n1
Method in brief: as §1

[3] = compound: Cc1cn(-c2cc(NC(=O)c3ccc(C)c(Nc4nccc(-c5cccnc5)n4)c3)cc(C(F)(F)F)c2)cn1 [nilotinib]
Method in brief: as §1

[4] = compound: Cc1nc(Nc2n[nH]c3c2CN(C(=O)N[C@H](CN(C)C)c2ccccc2)C3(C)C)c2sccc2n1
Method in brief: as §1

[5] = compound: Cc1nc(Nc2ncc(C(=O)Nc3c(C)cccc3Cl)s2)cc(N2CCN(CCO)CC2)n1 [dasatinib]
Method in brief: as §1

[6] = compound: Cc1ncc(-c2ccnc(Nc3ccc(S(C)(=O)=O)cc3)n2)n1C(C)C
Method in brief: as §1

[7] = compound: Cn1cc(-c2ccc3c(c2)CCN3C(=O)Cc2cccc(C(F)(F)F)c2)c2c(N)ncnc21
Method in brief: as §1

[8] = compound: Cn1cc(-c2ccc3nnc(C(F)(F)c4ccc5ncccc5c4)n3n2)cn1
Method in brief: as §1

[9] = compound: Cn1cncc1[C@@](N)(c1ccc(Cl)cc1)c1ccc2c(c1)c(-c1cccc(Cl)c1)cc(=O)n2C [tipifarnib]
Method in brief: as §1

[10] = compound: FC(F)(F)c1ccc(/C=C/c2nc(COc3ccc(CCCCn4ccnn4)cc3)co2)cc1 [mubritinib]
Method in brief: as §1

[11] = compound: NC(=O)Nc1cc(-c2cccc(F)c2)sc1C(=O)N[C@H]1CCCNC1
Method in brief: as §1

[12] = compound: NC(=O)c1cnc(N[C@@H]2CCCC[C@@H]2N)nc1Nc1cccc(-n2nccn2)c1
Method in brief: as §1

[13] = compound: NC1(c2ccc(-c3nc4ccn5c(=O)[nH]nc5c4cc3-c3ccccc3)cc2)CCC1
Method in brief: as §1

[14] = compound: NCC(=O)Nc1ccc(-n2nc(C(F)(F)F)cc2-c2ccc3c(ccc4ccccc43)c2)cc1
Method in brief: as §1

[15] = compound: Nc1ccccc1NC(=O)c1ccc(CNC(=O)OCc2cccnc2)cc1 [entinostat]
Method in brief: as §1

[16] = compound: O=C(CCCCCCC(=O)Nc1ccccc1)NO [vorinostat]
Method in brief: as §1

[17] = compound: O=C(O)c1ccc2c(c1)nc(Nc1cccc(Cl)c1)c1ccncc12 [silmitasertib]
Method in brief: as §1

[18] = compound: O=C1NC(=O)C(c2cnc3ccccn23)=C1c1cn2c3c(cc(F)cc13)CN(C(=O)N1CCCCC1)CC2
Method in brief: as §1

[19] = compound: O=C(CCCCCCNC(=O)c1cnc(N(c2ccccc2)c2ccccc2Cl)nc1)NO [citarinostat]
Method in brief: as §1

[20] = compound: c1cc(OCCN2CCCCC2)cc(-c2n[nH]c3ccc(-c4nnc[nH]4)cc23)c1
Method in brief: as §1

Measured: log2 fold change

MLXIP (UniProt Q9HAP2)
inactive: [1] 0.357 | [2] -0.067 | [3] -0.007 | [4] -0.018 | [5] -0.071 | [6] -0.072 | [7] 0.039 | [8] 0.068 | [9] -0.153 | [10] -0.011 | [11] 0.122 | [12] -0.042 | [13] 0.018 | [14] 0.12 | [15] 0.083 | [16] 0.055 | [17] -0.059 | [18] 0.077

MIPEP (UniProt Q99797)
inactive: [1] -0.073 | [2] -0.07 | [3] -0.051 | [4] -0.005 | [5] -0.108 | [6] 0.004 | [7] 0.057 | [8] -0.055 | [9] 0.001 | [10] 0.047 | [11] 0.001 | [12] -0.038 | [13] -0.112 | [14] -0.027 | [15] 0.039 | [16] -0.022 | [19] 0.078 | [17] -0.05 | [18] -0.018 | [20] 0.096

MRPL13 (UniProt Q9BYD1)
inactive: [1] 0.085 | [2] 0.069 | [3] -0.271 | [4] 0.07 | [5] 0.044 | [6] -0.037 | [7] -0.087 | [8] -0.021 | [9] 0.089 | [10] -0.03 | [11] 0.044 | [12] 0.039 | [13] -0.026 | [14] 0.156 | [15] 0 | [16] 0.038 | [19] -0.007 | [17] -0.085 | [18] 0.058 | [20] -0.076

MRPL19 (UniProt P49406)
inactive: [1] 0.187 | [2] 0.129 | [3] -0.111 | [4] 0.14 | [5] 0 | [6] 0.031 | [7] -0.197 | [8] -0.002 | [9] 0.076 | [10] 0.003 | [11] 0.01 | [12] 0.119 | [13] -0.028 | [14] 0.072 | [15] 0.046 | [16] 0.019 | [19] 0.025 | [17] -0.039 | [18] -0.01 | [20] -0.037

MRPL46 (UniProt Q9H2W6)
inactive: [1] 0.06 | [2] 0.014 | [3] -0.03 | [4] -0.002 | [5] -0.006 | [6] -0.016 | [7] -0.019 | [8] 0.06 | [9] 0.095 | [10] -0.003 | [11] -0.067 | [12] 0.009 | [13] 0.023 | [14] -0.014 | [15] -0.003 | [16] 0.011 | [19] 0.007 | [17] 0.005 | [18] 0.028 | [20] -0.062

MRPL28 (UniProt Q13084)
inactive: [1] 0.156 | [2] 0.118 | [3] -0.02 | [4] 0.176 | [5] 0.006 | [6] 0.015 | [7] -0.112 | [8] 0.021 | [9] 0.066 | [10] 0.042 | [11] 0.02 | [12] 0.059 | [13] 0.028 | [14] 0.192 | [15] 0.024 | [16] 0.043 | [19] 0.043 | [17] -0.072 | [18] 0.095 | [20] -0.013

MRPL45 (UniProt Q9BRJ2)
inactive: [1] 0.218 | [2] 0.117 | [3] -0.213 | [4] 0.146 | [5] -0.05 | [6] 0.004 | [7] -0.021 | [8] 0.006 | [9] 0.091 | [10] -0.013 | [11] 0.024 | [12] 0.037 | [13] -0.074 | [14] 0.147 | [15] -0.03 | [16] 0.1 | [19] 0.025 | [17] -0.043 | [18] -0.013 | [20] -0.058

MOB1B isoform 2 (UniProt Q7L9L4)
inactive: [1] -0.039 | [2] -0.012 | [3] 0.012 | [4] -0.033 | [5] 0.01 | [6] -0.015 | [7] 0.043 | [8] -0.004 | [9] -0.006 | [10] 0.081 | [11] -0.037 | [12] -0.02 | [13] -0.05 | [14] -0.044 | [15] 0.01 | [16] 0.004 | [19] 0.039 | [17] 0.026 | [18] -0.023 | [20] -0.077

MIF (UniProt P14174)
inactive: [1] 0.012 | [2] 0.034 | [3] 0.088 | [4] 0 | [5] 0.052 | [6] -0.052 | [7] 0.067 | [8] 0.076 | [9] -0.029 | [10] 0.021 | [11] -0.059 | [12] 0.092 | [13] 0.103 | [14] 0.048 | [15] 0.099 | [16] -0.085 | [19] -0.013 | [17] 0.036 | [18] -0.196 | [20] 0.063

MIF4GD isoform 3 (UniProt A9UHW6)
inactive: [1] -0.131 | [2] -0.066 | [3] 0.054 | [4] 0.073 | [5] 0.069 | [6] -0.048 | [7] 0.079 | [8] 0.005 | [9] -0.068 | [10] 0.043 | [11] -0.054 | [12] -0.085 | [13] 0.015 | [14] 0.006 | [15] -0.013 | [16] -0.101 | [19] 0 | [17] 0.018 | [18] 0.046 | [20] -0.033

MKLN1 (UniProt Q9UL63)
inactive: [1] 0.029 | [2] 0.009 | [3] 0.007 | [4] 0.002 | [5] 0.001 | [6] -0.046 | [7] -0.066 | [8] -0.077 | [9] 0.058 | [10] 0.021 | [11] -0.042 | [12] -0.008 | [13] -0.058 | [14] -0.025 | [15] 0.004 | [16] 0.023 | [19] 0.05 | [17] 0.011 | [18] -0.02 | [20] -0.046

MRPL55 isoform 2 (UniProt Q7Z7F7)
inactive: [1] 0.19 | [2] 0.131 | [3] -0.048 | [4] 0.094 | [5] -0.03 | [6] -0.036 | [7] -0.051 | [8] -0.094 | [9] 0.107 | [10] 0.07 | [11] -0.057 | [12] 0.01 | [13] -0.049 | [14] 0.042 | [15] 0.045 | [16] -0.069 | [19] -0.007 | [17] -0.057 | [18] 0.075 | [20] -0.142

MOB3A (UniProt Q96BX8)
inactive: [1] 0.036 | [2] -0.003 | [3] 0.041 | [4] -0.091 | [5] -0.303 | [6] 0.032 | [7] 0.023 | [8] -0.145 | [9] -0.137 | [10] 0.127 | [11] 0.396 | [12] -0.21 | [13] -0.178 | [14] 0.055 | [15] 0.227 | [16] 0.086 | [17] 0.032

MIS18A (UniProt Q9NYP9)
inactive: [1] -0.074 | [2] 0.002 | [3] 0.062 | [4] -0.059 | [5] -0.011 | [6] -0.024 | [7] 0.013 | [8] -0.009 | [9] -0.009 | [10] 0.017 | [11] -0.019 | [12] -0.058 | [13] -0.077 | [14] 0.047 | [15] -0.01 | [16] -0.008 | [19] 0.041 | [17] -0.003 | [18] -0.171 | [20] -0.03

MKI67 (UniProt P46013)
inactive: [1] -0.09 | [2] -0.125 | [3] -0.141 | [4] 0.023 | [5] 0.035 | [6] -0.016 | [7] -0.008 | [8] 0.094 | [9] 0.2 | [10] 0.051 | [11] 0.085 | [12] -0.011 | [13] 0.005 | [14] 0.072 | [15] -0.043 | [16] 0.038 | [19] 0.002 | [17] -0.002 | [18] 0.063 | [20] -0.031

MRGBP (UniProt Q9NV56)
inactive: [1] -0.075 | [2] 0.211 | [3] -0.014 | [4] -0.028 | [5] -0.119 | [6] -0.016 | [7] -0.012 | [8] 0.006 | [9] 0.045 | [10] 0.092 | [11] 0.045 | [12] -0.042 | [13] 0.083 | [14] -0.025 | [15] -0.015 | [16] -0.035 | [19] -0.115 | [17] 0.094 | [18] 0.021 | [20] -0.005
